# Results of single-concentration screens

Data taken from ChEMBL document CHEMBL3988442, “University of Dundee, Small-Polar-MMV Screening Library” (2021).

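Phenotypic screen: M. tuberculosis growth, glucose 7H9 medium, 3 days; the read-out is not stated. Compounds at 50 µM. The record gives no direction; compounds that gave an IC50 in retests scored well above the rest, so higher reads as more growth inhibition. Size under these conditions: about 69,000 compounds, about 760 of them at 50% or above in at least one test.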

Values are the deposited “Percent Effect”, in %.
How 0% and 100% were set is not recorded. Most values in the screen are low, and negative values occur.
This is an unselected part of the compounds tested.
Two or more numbers in one place are separate tests of the same structure; such repeats can differ widely.

structure	effect
CC(=O)N1CCc2c(nc(N(C)C)nc2NCc2cccs2)C1	4.065
O=C(CN1CCN(c2ccccc2F)CC1)Nc1ccc(Cl)cn1	17.98
Cc1ccc(C(=O)Nc2ccccc2N2CCCC2)n1C	-1.73
Cl.OC1(c2ccc(F)cc2)CCN(Cc2ccccc2N2CCCC2)CC1	52.77
Cc1ncsc1C(=O)NCCSCc1cccs1	28.92
O=c1oc(-c2cccs2)nn1CC(O)c1ccc2c(c1)CCC2 (configuration not stated)	-11.25
CCCc1cc(C(=O)N[C@@H]2CC[C@@H](N3CCOCC3)[C@@H]2O)no1	3.477
CC(C)(CNC(=O)CSc1nnnn1C1CC1)c1ccccc1F	-2.892 and -1.479
COCCc1noc(CN2CCCc3cccc(OC)c32)n1	7.351 and -1.295
CN(C)S(=O)(=O)N1CCC[C@]2(C[C@@H](Oc3ncccc3F)CO2)C1.O=C(O)C(F)(F)F	21.17
CCc1nc(CN2CCCC(NCc3ncc(C(C)(C)C)o3)C2)no1 (configuration not stated)	3.231
[H][C@@]12CN(C(N)=O)C[C@]1([H])CN(C(=O)c1ccco1)C2	-16.62
CNC(=O)c1cn[nH]c1C1CCCN1C(=O)c1ccccn1 (configuration not stated)	17.96
Cc1c(C(=O)N2CCCC2c2cnn(C)c2)cnn1-c1ccccc1 (configuration not stated)	-7.633 and -6.814
Cc1c(CS(C)(=O)=O)cccc1NCC1CCCCC1	20.23 and 2.541
Cc1noc(C)c1CN(C)c1ncnc2ccccc12	-15.52
CCC(=O)N(C)C1CCN(Cc2ncc(C)c(OC)c2C)CC1	-4.237
Cc1cccc(C2(C(=O)NCC(C)CN3CCCC3=O)CC2)c1 (configuration not stated)	31.35
Cc1nsc(NC(=O)NC2(CN3CCOCC3)CCCCC2)n1	-28.45
Cc1ccc(C2(CN(C)Cc3c(C)nn(C)c3C)CCNCC2)nc1	33.84
Cc1nc(-c2cc(C(=O)O)co2)cs1	3.368 and -40.55
CN(CCO)C[C@@H]1CN(Cc2ccccc2C#N)C[C@@H]1CO	-22.05
Cn1cc(CN2CC(C(=O)Nc3ccccc3)C3(CCOCC3)C2)cn1.O=C(O)C(F)(F)F (configuration not stated)	1.695 and -3.305
[H][C@@]12CCN(C(=O)c3c(C)noc3C)C[C@@]1([H])O[C@H](c1ccncn1)C2	-20.19
CC(=O)N1CCC(c2ncc3c(n2)CCN(C(=O)c2ccccc2)C3)C1 (configuration not stated)	14
Cc1nn(C)c(C)c1OCC(=O)NCc1cccc(CO)c1	33.2
O=C(NCc1ccco1)N1CCC(n2cc(-c3ccccn3)nn2)CC1	-19.74 and -6.613
Cc1cc(=O)[nH]cc1C(=O)N1CCN(C)c2ccccc2C1	-8.118
[H][C@@]12OCCN(C(=O)CC3=CCCCC3)[C@@]1([H])CC[C@H]2OCC	-8.568
Cc1cnn(CC2CCCCN2Cc2cc(C)on2)c1 (configuration not stated)	-13.58
c1ccc(COCC2CNCc3nccn3C2)nc1 (configuration not stated)	-2.238 and 0.5866
COc1ccc(Br)cc1CCC(=O)N1CCCC1	37.29
CCc1nc(CN2CCN(C(=O)c3cc(C)nn3C)CC2)cs1	-5.896 and -3.592
O=C(O)C(F)(F)F.[H][C@@]12CCN(Cc3cccs3)C[C@@]1([H])[C@H](C(=O)N1CCCCO1)CCO2	13.43
Cc1ccc(NC(=O)CNc2cccc3c2CCCC3)c(Br)c1	2.37
Cc1nn(CCc2nnc(NCC(C)C)s2)c(C)c1Br	26.52 and 3.664
COC1CCN(C(=O)CC(C)(C)C)CC(=O)N(C)c2ccccc21 (configuration not stated)	9.387
CCC1(CC)C(=O)NC(=O)N=C1Nc1ccc(C)cc1	14.44
CC(C(=O)Nc1ccc2ccccc2c1)N1CCC(n2ccnc2)CC1 (configuration not stated)	15.43 and 12.93
OCc1cccc(CNCc2cccc3c2OCCO3)c1	-44.88
Cc1cnc(Nc2nccnc2C2CCN(C)CC2)s1	-13.09
CS(=O)(=O)c1ccc(NC(=O)NC2(c3cccc(F)c3)CC2)cc1	5.036 and -24.2
CN(C)CC1CN(Cc2nnc(C(C)(C)C)o2)CCO1 (configuration not stated)	-8.833 and -56.65
CCCC(C)(C)NC(=O)CCN1CCOC1=O	-6.81
Cc1ccccc1OCCC(=O)NC(C)c1nnc2n1CCCCC2 (configuration not stated)	-16.11
CCOC1CCCN(C(=O)c2[nH]nc(C)c2Br)C1 (configuration not stated)	30.71
COc1ccc(N(CCC(N)=O)C(=O)CSc2ccc(Cl)cc2)cc1	-24.47
[H][C@@]12CCN(CC3CCOCC3)[C@@]1([H])CCN2C(=O)c1ccco1	-10.61
COc1ccc(CC(=O)N2CCN(Cc3ccco3)C[C@@H]2C)cc1OC	15.23
O=C(NCC1CCOC1)c1cc(-c2ccc(Cl)cc2)n[nH]1 (configuration not stated)	7.624 and 9.064
CCOCCn1c(=O)[nH]c2cc(C(=O)N(C)Cc3cc(C)[nH]n3)ccc21	2.098
CCOc1cccc(CNC(=O)c2cnn(CC)c2C(F)(F)F)c1	10.77
COc1ccc(CNCc2ccnc(N3CCCCC3)c2)cc1OC	-9.155
CN1CCOCC12CCN(Cc1ccoc1)CC2.O=C(O)C(F)(F)F.O=C(O)C(F)(F)F	-11.75
CNS(=O)(=O)c1cccc(CNC(=O)c2c(C)oc(C)c2C)c1	-18.98
CC(=O)N1CCN(C(=O)c2ccc3ccn(C)c3c2)CC1	5.584
C/C=C(\C)CN1C[C@H](NC(=O)c2cc[nH]c2C)[C@@H](C2CC2)C1	32.05 and 43.73
O=c1c(NCCCO)c(N2CCN(c3ccccc3)CC2)c1=O	20.79
Cc1ccnc(NC(=O)CCNC(=O)c2ccccc2Cl)c1	-18.73
O=C(O)C(F)(F)F.O=C(c1ccco1)N1CCCC12CCN(c1ncccn1)CC2	19.99
CC(C)Oc1ccccc1CNC(=O)N(C)CC(F)F	-2.056 and -3.026

7 of the entries, repeated:

| structure | effect |
|---|---|
| `COc1ccc(CC(=O)N2CCN(Cc3ccco3)C[C@@H]2C)cc1OC` | 15.23 |
| `COCCc1noc(CN2CCCc3cccc(OC)c32)n1` | 7.351 and -1.295 |
| `Cc1cnn(CC2CCCCN2Cc2cc(C)on2)c1` (configuration not stated) | -13.58 |
| `Cl.OC1(c2ccc(F)cc2)CCN(Cc2ccccc2N2CCCC2)CC1` | 52.77 |
| `CC(C)(CNC(=O)CSc1nnnn1C1CC1)c1ccccc1F` | -2.892 and -1.479 |
| `Cc1c(C(=O)N2CCCC2c2cnn(C)c2)cnn1-c1ccccc1` (configuration not stated) | -7.633 and -6.814 |
| `Cc1cnc(Nc2nccnc2C2CCN(C)CC2)s1` | -13.09 |